Results are given in words; binding and its absence hold for the method and conditions named. Binding seen in cells or lysates may run through a third protein. A yes stands for co-enrichment or nearness to the bait. Other partners may have been found. Sequences can lack the tags named with a protein.
Each substance was assayed against T1, HA-Flag-Fbxw8 (human) (UniProt Q8N3Y1) (assay: affinity purification with mass spectrometry; lysates of 293T cells expressing HA-Flag-Fbxw8 (50 mM Tris-HCl pH 7.5, 150 mM NaCl, 0.5% Nonidet P40) immunoprecipitated with anti-HA resin, eluted with HA peptide, LC-MS/MS; CompPASS scoring of HCIPs).
T1 sequence: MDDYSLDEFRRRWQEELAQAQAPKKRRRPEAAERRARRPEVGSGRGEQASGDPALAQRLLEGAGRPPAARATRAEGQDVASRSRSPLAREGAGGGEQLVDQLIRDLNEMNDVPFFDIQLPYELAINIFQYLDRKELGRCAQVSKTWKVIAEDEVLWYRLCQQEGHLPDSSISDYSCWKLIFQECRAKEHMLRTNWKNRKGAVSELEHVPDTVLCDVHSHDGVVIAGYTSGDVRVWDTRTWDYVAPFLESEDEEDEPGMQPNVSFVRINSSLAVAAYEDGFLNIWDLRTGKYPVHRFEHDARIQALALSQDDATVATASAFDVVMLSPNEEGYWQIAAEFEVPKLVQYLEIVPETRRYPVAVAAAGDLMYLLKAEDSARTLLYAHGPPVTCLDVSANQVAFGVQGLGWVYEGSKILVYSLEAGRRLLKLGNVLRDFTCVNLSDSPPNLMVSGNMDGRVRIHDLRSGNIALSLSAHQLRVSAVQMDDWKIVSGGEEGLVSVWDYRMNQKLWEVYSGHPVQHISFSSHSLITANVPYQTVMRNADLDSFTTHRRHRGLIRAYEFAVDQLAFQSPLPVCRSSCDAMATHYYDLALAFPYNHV

The chains behind the UniProt entries cited, without tags or fusion partners.
UniProt Q14999: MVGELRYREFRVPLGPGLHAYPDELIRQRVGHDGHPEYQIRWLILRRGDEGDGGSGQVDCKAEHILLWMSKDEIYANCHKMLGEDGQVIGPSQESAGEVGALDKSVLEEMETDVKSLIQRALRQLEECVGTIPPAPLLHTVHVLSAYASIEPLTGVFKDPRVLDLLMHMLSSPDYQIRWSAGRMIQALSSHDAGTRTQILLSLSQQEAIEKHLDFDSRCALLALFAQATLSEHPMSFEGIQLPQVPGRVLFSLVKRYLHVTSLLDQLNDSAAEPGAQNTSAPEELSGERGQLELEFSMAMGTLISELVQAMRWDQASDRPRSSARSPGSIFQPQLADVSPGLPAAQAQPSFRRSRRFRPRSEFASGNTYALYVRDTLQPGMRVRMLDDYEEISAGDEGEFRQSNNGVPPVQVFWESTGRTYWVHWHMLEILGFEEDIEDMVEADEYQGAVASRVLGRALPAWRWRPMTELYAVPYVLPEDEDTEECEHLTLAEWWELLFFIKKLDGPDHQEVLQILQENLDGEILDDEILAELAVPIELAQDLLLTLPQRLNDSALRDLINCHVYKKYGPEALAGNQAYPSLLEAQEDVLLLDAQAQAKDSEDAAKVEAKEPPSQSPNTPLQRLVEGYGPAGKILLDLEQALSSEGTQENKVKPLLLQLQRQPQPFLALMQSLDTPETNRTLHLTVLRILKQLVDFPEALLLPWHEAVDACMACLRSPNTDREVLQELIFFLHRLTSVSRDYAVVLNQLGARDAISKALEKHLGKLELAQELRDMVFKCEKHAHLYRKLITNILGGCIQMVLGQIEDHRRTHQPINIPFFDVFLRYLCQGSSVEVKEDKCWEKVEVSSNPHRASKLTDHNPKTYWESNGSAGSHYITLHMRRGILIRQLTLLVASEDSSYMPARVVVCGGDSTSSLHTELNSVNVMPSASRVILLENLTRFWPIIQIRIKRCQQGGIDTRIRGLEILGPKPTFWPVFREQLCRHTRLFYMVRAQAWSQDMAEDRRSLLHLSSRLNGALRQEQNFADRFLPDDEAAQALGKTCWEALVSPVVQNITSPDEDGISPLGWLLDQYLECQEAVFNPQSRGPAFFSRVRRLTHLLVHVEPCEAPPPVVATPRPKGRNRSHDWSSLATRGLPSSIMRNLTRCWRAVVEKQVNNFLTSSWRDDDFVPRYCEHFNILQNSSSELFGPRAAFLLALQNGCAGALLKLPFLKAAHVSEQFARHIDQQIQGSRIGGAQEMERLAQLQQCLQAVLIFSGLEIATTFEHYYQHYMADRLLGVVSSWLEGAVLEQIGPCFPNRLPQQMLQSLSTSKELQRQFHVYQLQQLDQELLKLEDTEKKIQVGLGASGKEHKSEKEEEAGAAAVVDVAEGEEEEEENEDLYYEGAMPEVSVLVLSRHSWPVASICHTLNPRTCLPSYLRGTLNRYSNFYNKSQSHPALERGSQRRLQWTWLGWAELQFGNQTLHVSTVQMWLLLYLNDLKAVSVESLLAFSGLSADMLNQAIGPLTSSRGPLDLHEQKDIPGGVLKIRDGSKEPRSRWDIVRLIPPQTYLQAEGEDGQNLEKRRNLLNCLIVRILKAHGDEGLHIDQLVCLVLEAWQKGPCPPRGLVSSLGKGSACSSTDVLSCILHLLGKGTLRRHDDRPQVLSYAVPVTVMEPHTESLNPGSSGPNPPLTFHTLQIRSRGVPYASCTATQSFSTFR
UniProt O75147: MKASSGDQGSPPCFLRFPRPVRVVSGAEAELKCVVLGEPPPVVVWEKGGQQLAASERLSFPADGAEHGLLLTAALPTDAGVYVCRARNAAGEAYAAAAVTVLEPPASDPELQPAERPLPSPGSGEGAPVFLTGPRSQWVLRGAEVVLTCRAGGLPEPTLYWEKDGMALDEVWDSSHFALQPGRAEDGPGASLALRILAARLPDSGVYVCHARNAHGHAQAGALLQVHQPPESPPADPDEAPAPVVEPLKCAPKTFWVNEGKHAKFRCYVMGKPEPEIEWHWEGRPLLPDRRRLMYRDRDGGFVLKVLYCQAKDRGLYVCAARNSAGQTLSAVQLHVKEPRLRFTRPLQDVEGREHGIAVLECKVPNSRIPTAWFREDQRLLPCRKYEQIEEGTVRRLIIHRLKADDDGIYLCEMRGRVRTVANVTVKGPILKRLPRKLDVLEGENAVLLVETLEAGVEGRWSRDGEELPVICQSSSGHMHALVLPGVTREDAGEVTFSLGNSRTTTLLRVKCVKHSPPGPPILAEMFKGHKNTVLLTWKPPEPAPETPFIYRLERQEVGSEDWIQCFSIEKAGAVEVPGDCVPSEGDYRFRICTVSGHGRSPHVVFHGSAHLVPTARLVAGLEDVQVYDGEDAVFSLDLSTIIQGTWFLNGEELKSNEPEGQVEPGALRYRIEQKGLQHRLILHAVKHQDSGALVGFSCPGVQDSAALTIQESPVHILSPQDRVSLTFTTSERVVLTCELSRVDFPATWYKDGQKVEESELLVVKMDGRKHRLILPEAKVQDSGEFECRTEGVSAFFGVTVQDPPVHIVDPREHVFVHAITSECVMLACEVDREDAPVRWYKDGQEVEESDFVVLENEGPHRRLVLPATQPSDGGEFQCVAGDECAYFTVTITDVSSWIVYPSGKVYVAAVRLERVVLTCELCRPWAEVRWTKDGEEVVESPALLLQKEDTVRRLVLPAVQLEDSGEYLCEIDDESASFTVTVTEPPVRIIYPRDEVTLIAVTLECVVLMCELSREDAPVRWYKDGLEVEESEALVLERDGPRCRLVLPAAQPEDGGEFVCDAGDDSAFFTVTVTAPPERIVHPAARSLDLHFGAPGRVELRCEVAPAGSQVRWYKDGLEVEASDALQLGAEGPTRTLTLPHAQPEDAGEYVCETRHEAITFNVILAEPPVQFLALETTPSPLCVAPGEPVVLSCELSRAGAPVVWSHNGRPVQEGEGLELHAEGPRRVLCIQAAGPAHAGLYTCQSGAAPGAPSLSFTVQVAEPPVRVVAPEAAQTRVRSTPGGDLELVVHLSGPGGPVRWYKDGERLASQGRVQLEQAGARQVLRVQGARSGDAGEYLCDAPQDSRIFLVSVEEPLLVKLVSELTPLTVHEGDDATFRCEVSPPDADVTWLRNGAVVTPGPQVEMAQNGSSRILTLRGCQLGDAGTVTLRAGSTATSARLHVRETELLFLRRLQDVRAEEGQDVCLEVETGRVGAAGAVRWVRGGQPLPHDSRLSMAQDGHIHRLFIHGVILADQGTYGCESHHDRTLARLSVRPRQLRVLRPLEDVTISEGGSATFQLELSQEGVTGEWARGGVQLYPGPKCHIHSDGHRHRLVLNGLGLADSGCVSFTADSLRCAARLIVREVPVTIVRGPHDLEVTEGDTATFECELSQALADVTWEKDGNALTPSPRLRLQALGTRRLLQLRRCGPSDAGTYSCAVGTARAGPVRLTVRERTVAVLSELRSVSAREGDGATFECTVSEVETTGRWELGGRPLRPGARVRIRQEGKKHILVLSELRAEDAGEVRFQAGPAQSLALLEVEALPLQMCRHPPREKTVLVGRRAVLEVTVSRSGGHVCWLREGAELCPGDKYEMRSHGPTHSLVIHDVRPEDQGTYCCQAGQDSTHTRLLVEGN
UniProt P63208: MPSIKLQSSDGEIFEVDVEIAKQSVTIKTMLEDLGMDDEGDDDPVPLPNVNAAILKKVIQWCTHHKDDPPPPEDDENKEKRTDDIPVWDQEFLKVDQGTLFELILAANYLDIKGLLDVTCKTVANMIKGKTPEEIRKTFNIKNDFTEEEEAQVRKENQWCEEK

Substance | binding
Cul7 (endogenous, 293T) (from UniProt Q14999 1-1698) | binds
OBSL1 (endogenous, 293T) (from UniProt O75147 1-1896) | binds
Skp1A (endogenous, 293T) (from UniProt P63208 1-163) | binds

From publication PMC3091842
